Results are given in words; binding and its absence hold for the method and conditions named. A result given as binding can be weak or reduced; the word gives no strength.
Target: avidin-cynoIL-1R1-FLAG with mutation 10.1 (human residue) (cynomolgus)
Assay: multiplexed bead-based assay (Luminex MFI), antibody 25 ug/ml, normalised to anti-FLAG

- binding: binds
B1: 15C4 human anti-IL-1R1 monoclonal antibody (purified from hybridoma supernatant) (antibody, V domains shown)
VH: EVQLMQSGAEVKKPGESLKISCKGSGYSFSFHWIAWVRQMPGKGLEWMGIIHPGASDTRYSPSFQGQVTISADNSNSATYLQWSSLKASDTAMYFCARQRELDYFDYWGQGTLVTVSS
VL: EIVLTQSPDFQSVTPKEKVTITCRASQSIGSSLHWYQQKPDQSPKLLIKYASQSFSGVPSRFSGSGSGTDFTLTINSLEAEDAAAYYCHQSSSLPLTFGGGTKVEIK
notes: Human IgG kappa from HuMab mice

Reference: patent publication US20040097712A1 (Amgen, published 2004)
